Here are results for two molecules from article PMC12778051.

Assay [1] deals with T1, Myc-LUBEL^1-872 R157A (Drosophila melanogaster) (UniProt Q8IPJ3).
T1 sequence: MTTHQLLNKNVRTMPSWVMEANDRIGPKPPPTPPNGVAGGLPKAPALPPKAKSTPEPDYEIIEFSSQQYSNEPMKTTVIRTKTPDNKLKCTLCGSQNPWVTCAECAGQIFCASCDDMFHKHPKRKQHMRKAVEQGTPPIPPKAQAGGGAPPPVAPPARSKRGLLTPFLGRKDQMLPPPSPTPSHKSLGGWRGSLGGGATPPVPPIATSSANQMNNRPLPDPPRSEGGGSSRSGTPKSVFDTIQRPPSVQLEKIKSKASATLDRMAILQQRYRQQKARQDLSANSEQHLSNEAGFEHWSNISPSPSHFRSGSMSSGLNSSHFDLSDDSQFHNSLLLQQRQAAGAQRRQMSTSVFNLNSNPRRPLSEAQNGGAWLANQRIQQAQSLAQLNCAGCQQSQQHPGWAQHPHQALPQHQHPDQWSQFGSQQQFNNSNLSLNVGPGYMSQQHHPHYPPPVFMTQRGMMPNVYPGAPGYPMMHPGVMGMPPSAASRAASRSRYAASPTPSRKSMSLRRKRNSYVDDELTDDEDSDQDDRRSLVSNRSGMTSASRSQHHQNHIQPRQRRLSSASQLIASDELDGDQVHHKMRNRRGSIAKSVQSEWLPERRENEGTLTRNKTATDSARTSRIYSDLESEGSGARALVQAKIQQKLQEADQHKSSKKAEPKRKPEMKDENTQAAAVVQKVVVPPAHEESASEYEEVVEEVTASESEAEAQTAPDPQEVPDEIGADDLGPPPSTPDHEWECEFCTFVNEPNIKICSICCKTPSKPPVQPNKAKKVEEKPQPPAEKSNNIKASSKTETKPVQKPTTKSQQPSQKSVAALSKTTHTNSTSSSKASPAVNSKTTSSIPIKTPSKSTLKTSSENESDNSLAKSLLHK
The assay is described as follows: co-IP; Myc-LUBEL^1-872 (wild-type or R157A) and Amph isoform C-HA coexpressed in S2 cells; anti-Myc IP, immunoblot with anti-Myc and anti-HA.

The target in assay [2] is T2, Myc-LUBEL^1-872 (Drosophila melanogaster) (UniProt Q8IPJ3).
T2 sequence: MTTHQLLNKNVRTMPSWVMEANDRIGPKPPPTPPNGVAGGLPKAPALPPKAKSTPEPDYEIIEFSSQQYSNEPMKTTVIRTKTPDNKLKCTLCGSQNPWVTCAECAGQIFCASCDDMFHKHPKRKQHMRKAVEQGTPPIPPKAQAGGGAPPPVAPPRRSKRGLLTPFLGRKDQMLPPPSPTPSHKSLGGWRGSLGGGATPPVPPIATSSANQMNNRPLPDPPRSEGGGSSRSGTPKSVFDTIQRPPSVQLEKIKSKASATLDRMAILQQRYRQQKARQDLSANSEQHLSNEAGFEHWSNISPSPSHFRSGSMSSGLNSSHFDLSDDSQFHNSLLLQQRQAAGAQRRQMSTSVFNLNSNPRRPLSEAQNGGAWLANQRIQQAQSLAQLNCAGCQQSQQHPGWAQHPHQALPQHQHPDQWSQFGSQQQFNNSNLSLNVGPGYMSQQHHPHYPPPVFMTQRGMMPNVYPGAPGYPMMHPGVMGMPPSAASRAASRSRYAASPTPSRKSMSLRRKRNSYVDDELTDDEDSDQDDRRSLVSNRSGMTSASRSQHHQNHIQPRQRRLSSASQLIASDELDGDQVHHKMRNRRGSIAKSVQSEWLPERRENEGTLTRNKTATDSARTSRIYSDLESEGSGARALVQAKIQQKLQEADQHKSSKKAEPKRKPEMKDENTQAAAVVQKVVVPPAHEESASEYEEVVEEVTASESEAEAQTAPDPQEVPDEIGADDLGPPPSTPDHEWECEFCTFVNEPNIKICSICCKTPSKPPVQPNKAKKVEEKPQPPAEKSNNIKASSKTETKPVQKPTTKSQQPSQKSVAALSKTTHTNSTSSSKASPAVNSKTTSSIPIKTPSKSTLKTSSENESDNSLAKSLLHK
The assay is described as above.

The target in assay [3] is GST-Amph BAR domain (Drosophila melanogaster). The assay is described as follows: pull-down; GST-fused Amph fragments on glutathione agarose incubated with lysate for 90 min at 4°C; lysis buffer 1% NP-40, 1 mM EDTA, 20 mM tris-HCl pH 7.4, 150 mM NaCl; only the target purified.
Assay [4] deals with GST-Amph SH3 domain (Drosophila melanogaster). Described as above.

These are yes or no findings as the source states them, for the method shown. In cells and extracts the contact can be indirect. For some of these results: A result given as binding can be weak or reduced; the word gives no strength. Where a sequence is shown, tags or fusion partners need not be part of it.

Consider “Amph isoform C-HA (Drosophila melanogaster)”, for which the binding result in assay [1] is “no binding”; in assay [2], “binds”.

B1: LUBEL^1-872 (as used in the GST pull-down) (domain or fragment, UniProt Q8IPJ3 1-872)
chain: MTTHQLLNKNVRTMPSWVMEANDRIGPKPPPTPPNGVAGGLPKAPALPPKAKSTPEPDYEIIEFSSQQYSNEPMKTTVIRTKTPDNKLKCTLCGSQNPWVTCAECAGQIFCASCDDMFHKHPKRKQHMRKAVEQGTPPIPPKAQAGGGAPPPVAPPRRSKRGLLTPFLGRKDQMLPPPSPTPSHKSLGGWRGSLGGGATPPVPPIATSSANQMNNRPLPDPPRSEGGGSSRSGTPKSVFDTIQRPPSVQLEKIKSKASATLDRMAILQQRYRQQKARQDLSANSEQHLSNEAGFEHWSNISPSPSHFRSGSMSSGLNSSHFDLSDDSQFHNSLLLQQRQAAGAQRRQMSTSVFNLNSNPRRPLSEAQNGGAWLANQRIQQAQSLAQLNCAGCQQSQQHPGWAQHPHQALPQHQHPDQWSQFGSQQQFNNSNLSLNVGPGYMSQQHHPHYPPPVFMTQRGMMPNVYPGAPGYPMMHPGVMGMPPSAASRAASRSRYAASPTPSRKSMSLRRKRNSYVDDELTDDEDSDQDDRRSLVSNRSGMTSASRSQHHQNHIQPRQRRLSSASQLIASDELDGDQVHHKMRNRRGSIAKSVQSEWLPERRENEGTLTRNKTATDSARTSRIYSDLESEGSGARALVQAKIQQKLQEADQHKSSKKAEPKRKPEMKDENTQAAAVVQKVVVPPAHEESASEYEEVVEEVTASESEAEAQTAPDPQEVPDEIGADDLGPPPSTPDHEWECEFCTFVNEPNIKICSICCKTPSKPPVQPNKAKKVEEKPQPPAEKSNNIKASSKTETKPVQKPTTKSQQPSQKSVAALSKTTHTNSTSSSKASPAVNSKTTSSIPIKTPSKSTLKTSSENESDNSLAKSLLHK
Regarding B1, the binding result in assay [3] is given as “no binding”; in assay [4], “binds”.
